# According to PubChem BioAssay AID588497 (NMMLSC, 2011):
# The campaign covered roughly 360,000 compounds. About 780 (0.22%) were called active. Inconclusive results, whose numbers are uncertain, are shown with a selection of clear calls. Cut-off read from the data, not from the text of the source: active = inhibition above about 35% (passing the limit was not always enough); inconclusive = no clear call, values can overlap the other calls.
# Test system: Botulinum neurotoxin type F light chain protease (Clostridium botulinum)
# Experiment: BoNT/F light chain protease inhibitors, primary screen, biochemical, flow cytometry, MLPCN library (AID 588497); note: plate controls were buffer without enzyme for full effect and enzyme alone for no effect
# Details: Multiplex microsphere protease cleavage assay, at 10 µM, active compounds read high
row,SMILES,inhibition
1,COCCN(C(=O)COC(=O)c1ccco1)c1c(N)n(Cc2ccccc2)c(=O)[nH]c1=O,inconclusive: -3.2%
2,CC(C)C[C@H](NC(=O)OC(C)(C)C)c1nnc(SCc2ccccc2)o1,inconclusive: -1.3%
3,CC(Oc1ccc(Br)cc1)C(=O)NCC(c1cccs1)N1CCOCC1 (stereo not given),inactive: -4.6%
4,Cc1c(NC(=O)c2ccccc2N)cccc1C(=O)O,inactive: 2.3%
5,CC1CC(c2ccccc2)n2nc(N3C(=O)c4ccccc4C3=O)nc2N1 (stereo not given),inconclusive: 13%
6,COc1ccc(C(=O)Nc2cccc(NC(=O)c3ccc(OC)c(OC)c3)n2)cc1OC,inconclusive: -14.8%
7,O=C1COc2ccc3ccccc3c21,inconclusive: 17.8%
8,Cc1ccc(NC(=O)C(C)OC(=O)c2ccc(NC(=O)CC#N)cc2)cc1S(=O)(=O)N1CCOCC1 (stereo not given),inconclusive: 2.1%
9,N=c1c(C(=O)NCc2ccc(F)cc2)cc2c(=O)n3ccccc3nc2n1Cc1cccnc1,inconclusive: -47.9%
10,COc1ccc(C(=O)Nc2ccc(N3CCCC3)cc2)cc1Br,inconclusive: -57.6%
11,CCN(Cc1ccncc1)C(=O)Cc1cccs1,inconclusive: -14%
12,COCCNC(=O)c1cccc(OC2CCN(Cc3ccc(Cl)c(F)c3)CC2)c1,inconclusive: -22%
13,CCN(CC)C(=O)c1ccc(COc2ccc(Cl)c(C)c2)o1,inconclusive: 7.9%
14,CS(=O)(=O)N1CCCC(C(=O)Nc2ccccc2)C1 (stereo not given),inconclusive: 0.4%
15,COc1ccc(-n2c(SCc3nnc(-c4ccccc4)o3)nnc2-c2ccccc2)cc1,inactive: -2.2%
16,COc1ccccc1Nc1nc(N)nc(CSC(=S)N2CCOCC2)n1,inconclusive: -23.3%
17,CCN(CC)c1nc(N2CCN(C)CC2)nc2ccccc12,inconclusive: -22.5%
18,Cn1cccc1/C=N/NC(=O)Cc1ccccc1,inconclusive: 68.4%
19,Cc1cc(Cl)c(S(=O)(=O)NCc2cccnc2)cc1OCC(=O)NC1CCCCC1,inactive: -1.7%
20,Cc1ccc(C(=O)NNC(=O)c2cc(C)nc3ccccc23)cc1,inconclusive: 6.2%
21,CCc1ccccc1N(CC(=O)N1CCc2ccccc2C1)S(C)(=O)=O,inconclusive: -7.5%
22,CCOC(=O)NN1C(=O)c2ccccc2NC1c1ccccc1 (stereo not given),inactive: -4.7%
23,N#Cc1c(Cl)nsc1NCCN1CCOCC1,inactive: -8.9%
24,COC(=O)/C=c1/s/c(=C(\C#N)C(=O)NCc2ccco2)n(-c2ccc(C)cc2)c1=O,inconclusive: -0.8%
25,CCCCn1cnc2c(oc3nc4c(cc32)CCCC4)c1=O,inconclusive: 34.9%

# Exported bar-delimited: entries from further up.
row | SMILES | inhibition
7 | O=C1COc2ccc3ccccc3c21 | inconclusive: 17.8%
25 | CCCCn1cnc2c(oc3nc4c(cc32)CCCC4)c1=O | inconclusive: 34.9%
